# Assay results: PubChem BioAssay AID504834 (National Center for Advancing Translational Sciences (NCATS), 2011)
# Screen size: about 320,000 compounds; about 22,000 (6.9%) were called active. The shares of active, inactive and inconclusive entries below differ from those in the screen. Calls follow the shape of the dose curve; as a rule, active = well fitted inhibition curve with a large enough effect; inconclusive = small, poorly fitted or top-dose-only effect, or another doubt; inactive = no such curve, though single readings can be large or run the other way. A potency beside an inconclusive call is a rough fit, not a confirmed value.
# Test: Primary qHTS for delayed death inhibitors of the malarial parasite plastid, 96 hour incubation
# Details: P. falciparum luciferase reporter growth; series mostly up to 28.7 µM
# Procedure, shortened: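 Erythrocytes infected with luciferase-expressing P. falciparum were dispensed at 2% hematocrit and 0.05% parasitemia (final), then incubated with compounds 96 hours at 37 C in 5% CO2. Luminescence after detection reagent addition reported growth.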
# Potency is read from the fitted curve at half-maximal effect.
row,Compound,Potency
1,C[N+]1(CCC(=O)c2ccccc2)CCCCC1,"inconclusive: 2.08 µM [inhibitor, partial curve, poor fit]"
2,CNc1nnc(SCC(=O)N2c3ccccc3NC(=O)CC2C)s1 (stereo unspecified),"inconclusive: 2.33 µM [inhibitor, partial curve, poor fit]"
3,COc1ccccc1CCC(=O)Nc1cc(S(=O)(=O)N2CCOCC2)ccc1N1CCCC1,"inconclusive: 8.28 µM [inhibitor, single point]"
4,COc1ccc(NC(=O)C2CCCN(c3cnccn3)C2)cc1 (stereo unspecified),"inconclusive: 5.22 µM [inhibitor, partial curve]"
5,CCOc1cc(/C=N/NC(N)=O)cc(Br)c1OCC(=O)Nc1cccc2ccccc12,"inconclusive: 14.7 µM [inhibitor, partial curve, poor fit]"
6,COc1cc(OC)cc(C(=O)NC(=S)N(Cc2ccccc2)C(C)C)c1,"inconclusive: 11.7 µM [inhibitor, single point]"
8,Cc1nn(Cc2ccccc2Cl)c(C)c1C(=O)NCc1ccco1,inactive
9,CCOc1cccc(/C(O)=C2/C(=O)C(=O)N(CCOC)C2c2ccc(C)o2)c1 (stereo unspecified),"inconclusive: 18.5 µM [inhibitor, partial curve, poor fit]"
10,CCN(CC)CCNc1nc(-c2ccccc2)nnc1C(F)(F)F,"inconclusive: 14.7 µM [inhibitor, single point]"
11,COC(=O)c1ccc2c(=O)n(NC(=O)C(c3ccccc3)c3ccccc3)c(=S)[nH]c2c1,inactive
12,CNC(=S)NNC(=O)CSCc1c(Cl)cccc1Cl,inactive
13,COc1ccc(C)cc1NC(=O)C(=O)NNC(=O)c1ccco1,active: 1.85 µM
14,Cc1ccc(N2C(=O)C3CCCN3C2=S)c(C)c1 (stereo unspecified),"inconclusive: 14.7 µM [inhibitor, partial curve, poor fit]"
15,Cc1nnc(SCC(=O)c2ccc([N+](=O)[O-])cc2)s1,"inconclusive: 18.5 µM [inhibitor, single point]"
16,Nc1nc(Br)c2ccccc2c1-c1ccccc1,"inconclusive: 7.38 µM [inhibitor, partial curve, poor fit]"
17,CC(=O)c1ccc(S(=O)(=O)Nc2ccc(C(=O)NCC(c3ccccc3)N(C)C)cc2)cc1 (stereo unspecified),inactive
18,CCOC(=O)c1nc2sc3c(c2c(=O)n1C(C)C(=O)OCC)CCCC3 (stereo unspecified),"inconclusive: 0.465 µM [inhibitor, full curve, poor fit]"
19,CCOC(=O)C1=CC[C@H]2c3c(c4ccccc4n3C)C(=O)C1N2S(=O)(=O)c1ccc(C)cc1,"inconclusive: 11.7 µM [inhibitor, single point]"
20,COc1ccc2c(c1)C(=O)CC(c1ccccc1F)O2 (stereo unspecified),inactive
21,O=S(=O)(c1cnc[nH]1)N1CCN(C(c2ccc(F)cc2)c2ccc(F)cc2)CC1,"inconclusive: 18.5 µM [inhibitor, single point]"
22,CCOc1cc(-c2nnc(NC(=O)c3ccco3)o2)cc(OCC)c1OCC,inactive
23,CCOc1ccccc1C(=O)Nc1cc2c(cc1N1CCCC1)n(CC)c(=O)n2CC,inactive
24,COc1cccc(N2CCN(C(C)C(=O)NC34CC5CC(CC(C5)C3)C4)CC2)c1 (stereo unspecified),"inconclusive: 11.7 µM [inhibitor, single point]"
25,Cc1cccc(-n2c3nc(=O)[nH]c(=O)c-3cc3cc([N+](=O)[O-])ccc32)c1,inactive
26,COC(=O)N/N=C/c1ccccc1,inactive

row,Compound,Potency
1,CN(C)CCn1c2c(c(SCC(=O)NCc3ccccc3)nc1=O)CCC2,inactive
2,Cc1cccc(CSc2nc3c(cc2C#N)CCC3)c1,inactive
3,Cc1ccc(Cl)cc1NS(=O)(=O)c1cn(C)nc1C,inactive
4,CC(C1CCN(Cc2cn(C)nc2-c2cccc(Cl)c2)CC1)N1CCOCC1 (stereo unspecified),inactive
5,CCOc1ccc(CCNC(=O)CCS(=O)(=O)c2ccc(Cl)cc2)cc1OCC,"inconclusive: 20.8 µM [inhibitor, partial curve, poor fit]"
6,COc1ccccc1/C=N/NC(=S)NCc1ccco1,"inconclusive: 18.5 µM [inhibitor, single point]"
7,CC(=O)c1ccc(S(=O)(=O)NCCC(=O)OCC(=O)N2CCCC2=O)cc1,inactive
8,CCOC(=O)/C(N)=C/c1ncc(C(F)(F)F)cc1Cl,inactive
9,COc1ccc2sc(-c3ccccc3OC)c(-c3ccc(O)cc3)c2c1,active: 2.33 µM
10,CCOC(=O)c1c(C)nc2sc3c(=O)[nH]cnc3c2c1-c1ccc(OC)cc1,"inconclusive: 18.5 µM [inhibitor, single point]"
11,CCOC(=O)C1CCN(C(=O)CNC(=O)OC(C)(C)C)CC1,"inconclusive: 0.586 µM [inhibitor, partial curve, poor fit]"
12,O=C(Nc1cc([N+](=O)[O-])ccc1Cl)c1ccc2c(c1)OCO2,inactive
13,COc1ccc2[nH]c(=O)c(CNc3ccccc3OC)cc2c1,inactive
14,S=C(NNC(=S)NC1CC2C=CC1C2)NC1CC2C=CC1C2 (stereo unspecified),active: 9.28 µM
15,O=C(Nc1nnc(-c2ccco2)o1)c1ccc(S(=O)(=O)N2CCOCC2)cc1,inactive
16,CC(C)(C)OC(=O)n1cc(CCO)c2ccccc21,"inconclusive: 5.86 µM [inhibitor, single point]"
17,O=C(COc1ccccc1)NCCSc1ccccc1,"inconclusive: 3.7 µM [inhibitor, single point]"
18,COc1ccc(O[C@H]2C=C[C@@H](c3ccccc3)O[C@@H]2CO/N=C(\C)CCC(=O)OC[C@H]2O[C@H](c3ccccc3)C=C[C@@H]2Oc2ccc(OC)cc2)cc1,active: 2.33 µM
19,Cc1cc(NC(=O)CSc2ccc3nnc(-c4ccccn4)n3n2)no1,active: 11.7 µM
20,O=C(/C=C/C(=O)N1CCc2ccccc2C1)N1CCc2ccccc2C1,"inconclusive: 14.7 µM [inhibitor, single point]"
21,CCC(C)n1c(=O)c(C(=O)Nc2ccccc2S(N)(=O)=O)c(O)c2ccccc21 (stereo unspecified),active: 9.28 µM
22,Cc1ccc(C(=O)Nc2ccc3c(c2)C(=O)N(C)C3=O)c(C)c1,inactive
23,O=C(c1ccc(C(=O)N2CCCc3ccccc32)s1)N1CCCc2ccccc21,"inconclusive: 18.5 µM [inhibitor, single point]"
24,Cc1nn(C)cc1CNC(=O)/C=C/c1cnn(C)c1,inactive
25,Cc1c(CCC(=O)NC2CC2)c(=O)oc2c(C)c(O)ccc12,inactive
26,Cc1ccc(OCCN2CCN(C)CC2)c([N+](=O)[O-])c1,"inconclusive: 11.7 µM [inhibitor, single point]"

# Rewritten with tabs: entries from further up
row	Compound	Potency
9	COc1ccc2sc(-c3ccccc3OC)c(-c3ccc(O)cc3)c2c1	active: 2.33 µM
16	CC(C)(C)OC(=O)n1cc(CCO)c2ccccc21	inconclusive: 5.86 µM [inhibitor, single point]

# Next structures

row,Compound,Potency
1,O=C(Cc1n[nH]c(=O)c2ccccc12)NC(c1ccccc1)c1ccccc1,"inconclusive: 18.5 µM [inhibitor, single point]"
2,Cn1c(N)c(C(=O)COC(=O)c2cc(-c3ccco3)nc3ccccc23)c(=O)n(C)c1=O,"inconclusive: 10.4 µM [inhibitor, single point]"
3,N=c1c(C(=O)NCc2ccc(F)cc2)cc2c(=O)n3ccccc3nc2n1CCCN1CCOCC1,active: 2.62 µM
4,COc1ccc(C(=O)CSc2nc3ncccc3[nH]2)cc1OC,inactive
5,c1coc(C2=Nc3cccc4cccc(c34)N2)c1,inactive
6,O=C(COc1ccc(F)cc1)N1CCC(Cc2ccccc2)CC1,inactive
7,Cc1cccc2sc(N(CCN(C)C)C(=O)c3cc(Cl)sc3Cl)nc12,inactive
8,COc1ccc(-n2cnnc2SCC(=O)N2CCN(S(=O)(=O)c3ccccc3)CC2)cc1,"inconclusive: 18.5 µM [inhibitor, single point]"
9,CCC1(c2ccccc2)NC(=O)N(CC(=O)c2ccc3c(c2)OCO3)C1=O (stereo unspecified),inactive
10,O=C(NC1CC2CCC(C1)N2Cc1ccccc1)c1ccccc1Cl (stereo unspecified),active: 13.1 µM
11,COCCn1nnnc1SCC(=O)c1ccc(F)cc1,"inconclusive: 18.5 µM [inhibitor, single point]"
12,CCCCn1c(-c2cccnc2)n[nH]c1=S,active: 2.62 µM
13,CN(Cc1nc(-c2cnccn2)no1)CC1(c2ccccc2)CC1(C)C (stereo unspecified),"inconclusive: 10.4 µM [inhibitor, single point]"
14,CCCNC(=O)C1CCN(S(=O)(=O)c2ccc3c(c2)OCCO3)CC1,inactive
15,COc1cc(CCC(=O)Nc2ccc(C)c(S(=O)(=O)N3CCCCCC3)c2)cc(OC)c1OC,active: 10.4 µM
16,COc1ccc(S(=O)(=O)N2CCSC2C)cc1C (stereo unspecified),inactive
17,COc1ccc(CNCCc2c[nH]c3ccccc23)c(OC)c1OC,"inconclusive: 13.1 µM [inhibitor, single point]"
18,O=C(NCc1ccccc1)c1c[nH]c2ccccc2c1=O,"inconclusive: 10.4 µM [inhibitor, partial curve]"
19,COc1cccc(CN(C)C(=O)CN2C(=O)NC(c3ccccc3)(c3ccccc3)C2=O)c1,active: 10.4 µM
20,Cn1c(=O)n(C)c2cc([N+](=O)[O-])c(N3CCN(S(=O)(=O)c4ccccc4)CC3)cc21,"inconclusive: 18.5 µM [inhibitor, single point]"
21,Cc1cc(C)nc(N/N=C/c2ccccc2OCc2ccc(Br)cc2)n1,"inconclusive: 11.7 µM [inhibitor, partial curve, poor fit]"
22,CCS(=O)(=O)c1nc(S(=O)(=O)c2ccc(Cl)cc2)c(N2CCC(O)CC2)s1,"inconclusive: 18.5 µM [inhibitor, single point]"
23,CCCOC(=O)/C(=C\C=C\c1ccco1)NC(=O)c1ccccc1,inactive
24,COc1ccc(NC(=O)Cn2c(C)cc(=O)c3ccccc32)cc1,"inconclusive: 13.1 µM [inhibitor, single point]"

# Some of these compounds in order of SMILES length, rising:
row,Compound,Potency
4,COc1ccc(C(=O)CSc2nc3ncccc3[nH]2)cc1OC,inactive
2,CNc1nnc(SCC(=O)N2c3ccccc3NC(=O)CC2C)s1 (stereo unspecified),"inconclusive: 2.33 µM [inhibitor, partial curve, poor fit]"
2,Cn1c(N)c(C(=O)COC(=O)c2cc(-c3ccco3)nc3ccccc23)c(=O)n(C)c1=O,"inconclusive: 10.4 µM [inhibitor, single point]"
